Results are given in words; binding and its absence hold for the method and conditions named. Binding seen in cells or lysates may run through a third protein. Some entries that bind do so weakly or less than the wild type.
Molecular target: HA‐FAK (UniProt Q00944)
Assay: co-IP; HEK293T cells transfected with HA‐FAK and GFP‐PI3KC2α (WT, HBD or HBD deleted); HA‐FAK immunoprecipitated with anti HA antibody and protein G‐Sepharose, bound proteins blotted with anti GFP or anti HA; lysis in 50 mM Tris‐HCl, 150 mM NaCl, 1% NP‐40, 1 mM EDTA, 10% glycerol; 4 °C

Amino acid sequences for entries named in this document (tags omitted).
UniProt Q00944: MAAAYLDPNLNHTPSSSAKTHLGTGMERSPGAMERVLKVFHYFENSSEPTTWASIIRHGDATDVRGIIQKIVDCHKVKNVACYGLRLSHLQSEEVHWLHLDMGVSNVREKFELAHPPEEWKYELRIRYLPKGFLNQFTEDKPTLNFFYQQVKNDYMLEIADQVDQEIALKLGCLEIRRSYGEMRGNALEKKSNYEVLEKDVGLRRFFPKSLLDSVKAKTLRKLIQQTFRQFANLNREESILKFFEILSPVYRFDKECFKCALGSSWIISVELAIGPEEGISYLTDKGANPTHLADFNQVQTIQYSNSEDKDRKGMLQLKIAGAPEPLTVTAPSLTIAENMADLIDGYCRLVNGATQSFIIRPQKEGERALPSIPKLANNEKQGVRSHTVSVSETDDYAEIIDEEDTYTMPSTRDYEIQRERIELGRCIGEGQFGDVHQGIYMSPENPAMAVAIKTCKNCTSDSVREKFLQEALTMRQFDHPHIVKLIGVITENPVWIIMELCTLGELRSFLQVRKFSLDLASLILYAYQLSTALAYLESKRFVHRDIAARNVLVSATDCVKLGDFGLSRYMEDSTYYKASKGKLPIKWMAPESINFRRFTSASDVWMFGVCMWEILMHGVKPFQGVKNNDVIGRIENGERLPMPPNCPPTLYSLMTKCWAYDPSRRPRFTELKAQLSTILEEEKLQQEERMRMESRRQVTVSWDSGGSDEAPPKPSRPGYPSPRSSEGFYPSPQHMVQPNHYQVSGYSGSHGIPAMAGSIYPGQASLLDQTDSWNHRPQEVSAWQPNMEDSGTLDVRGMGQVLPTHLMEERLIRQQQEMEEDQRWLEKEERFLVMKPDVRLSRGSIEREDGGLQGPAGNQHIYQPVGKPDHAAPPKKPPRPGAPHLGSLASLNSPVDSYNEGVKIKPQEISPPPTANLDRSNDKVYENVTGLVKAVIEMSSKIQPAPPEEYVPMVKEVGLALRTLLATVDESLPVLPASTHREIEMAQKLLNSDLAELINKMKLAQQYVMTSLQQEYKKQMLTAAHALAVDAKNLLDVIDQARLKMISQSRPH
UniProt O00443: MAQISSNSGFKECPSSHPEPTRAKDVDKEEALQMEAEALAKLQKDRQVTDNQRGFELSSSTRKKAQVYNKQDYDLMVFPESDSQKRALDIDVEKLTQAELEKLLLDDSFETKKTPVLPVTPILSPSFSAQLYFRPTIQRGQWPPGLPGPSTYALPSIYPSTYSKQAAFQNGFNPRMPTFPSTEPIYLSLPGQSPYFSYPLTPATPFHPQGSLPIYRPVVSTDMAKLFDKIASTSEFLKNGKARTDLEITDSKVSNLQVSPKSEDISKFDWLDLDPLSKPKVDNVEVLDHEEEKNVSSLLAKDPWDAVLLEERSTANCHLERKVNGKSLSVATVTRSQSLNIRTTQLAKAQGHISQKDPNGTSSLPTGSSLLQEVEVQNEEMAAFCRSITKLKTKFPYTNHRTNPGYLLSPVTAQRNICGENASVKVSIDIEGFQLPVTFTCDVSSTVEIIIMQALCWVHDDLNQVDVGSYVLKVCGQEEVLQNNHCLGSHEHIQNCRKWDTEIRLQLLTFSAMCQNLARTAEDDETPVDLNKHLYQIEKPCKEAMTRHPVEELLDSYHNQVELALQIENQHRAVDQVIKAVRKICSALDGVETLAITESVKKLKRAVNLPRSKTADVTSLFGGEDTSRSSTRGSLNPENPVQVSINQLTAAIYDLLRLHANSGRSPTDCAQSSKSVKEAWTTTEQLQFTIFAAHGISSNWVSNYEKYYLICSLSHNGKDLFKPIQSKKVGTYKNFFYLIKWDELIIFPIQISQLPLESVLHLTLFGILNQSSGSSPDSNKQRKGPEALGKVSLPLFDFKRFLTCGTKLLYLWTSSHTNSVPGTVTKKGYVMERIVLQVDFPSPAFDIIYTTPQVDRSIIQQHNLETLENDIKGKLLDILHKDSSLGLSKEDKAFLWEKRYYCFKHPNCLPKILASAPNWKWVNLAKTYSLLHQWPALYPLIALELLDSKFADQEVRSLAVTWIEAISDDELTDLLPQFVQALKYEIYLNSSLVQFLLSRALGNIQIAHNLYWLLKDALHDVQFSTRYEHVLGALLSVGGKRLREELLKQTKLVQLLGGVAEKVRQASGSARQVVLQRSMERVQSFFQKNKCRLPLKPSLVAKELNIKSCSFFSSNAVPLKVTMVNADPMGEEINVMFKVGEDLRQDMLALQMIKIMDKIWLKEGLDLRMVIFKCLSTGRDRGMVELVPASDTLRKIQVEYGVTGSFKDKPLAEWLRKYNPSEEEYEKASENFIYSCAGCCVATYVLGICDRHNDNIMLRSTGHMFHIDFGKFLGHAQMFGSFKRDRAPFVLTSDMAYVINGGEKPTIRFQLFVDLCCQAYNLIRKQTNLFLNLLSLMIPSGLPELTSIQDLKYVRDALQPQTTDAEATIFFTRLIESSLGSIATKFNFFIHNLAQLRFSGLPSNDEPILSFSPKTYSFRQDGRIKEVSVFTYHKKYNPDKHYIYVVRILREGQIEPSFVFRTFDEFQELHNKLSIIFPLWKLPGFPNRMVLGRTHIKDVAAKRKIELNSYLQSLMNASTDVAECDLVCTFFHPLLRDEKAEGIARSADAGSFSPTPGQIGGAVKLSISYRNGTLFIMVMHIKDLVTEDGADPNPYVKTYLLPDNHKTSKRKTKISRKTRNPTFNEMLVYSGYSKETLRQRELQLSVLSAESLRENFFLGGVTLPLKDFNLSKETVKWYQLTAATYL

binding: binds
Substance: GFP‐PI3KC2α (full length) (from UniProt O00443 1-1686) (enzyme)
